Here are results for 1 molecule from patent publication US20200138960A1.

In this test the target is TfR1 (human, Sino Biological Inc.) (human) (UniProt P02786). The experiment in a line: ELISA, converted values compared. (In general: ELISA stands for enzyme-linked immunosorbent assay.)

Results are given in words; binding and its absence hold for the method and conditions named. Some binding calls cover weakened binding; strength is not graded here.

B1: N-loop (designed binder)
chain: MSSQIRQNYHQDSEAAVNRQINLYLQASYTYLSLGFYFDRDDVALEGVSHFFRELAEEKREGYERLLKMQNQRGGRIFLQDIKKPDCDEWGKTPDAMKAAMALEKKLNQALLDLHKLATDKNDPHLCDFLETHFLDEEVKLIKKMGDHLTNLHRLGGPEAGLGEYLFERLTLKHD
For B1, the binding result is “binds”.
